Experimental data: article PMC6731319
No constants are given. Whether binding was seen depends on the method and setting.

Biological target: MBP-HJURP^541–748 (human) (UniProt Q8NCD3)
Assay: AUC; sedimentation velocity, isolated MBP-HJURP fragments at 5 µM, buffer HST300 (30 mM HEPES pH 7.5, 300 mM NaCl, 1 mM TCEP), 42,000 rpm, 20 °C (Supplementary Fig. 2b); both purified

binding: no binding (tested: 5 µM)
Substance: MBP-HJURP^541–748 (from UniProt Q8NCD3 541-748) (domain or fragment)
